These are yes or no findings as the source states them, for the method shown. In cells and extracts the contact can be indirect. A yes stands for co-enrichment or nearness to the bait. Other partners may have been found. For some assays here: A no says only that the protein was not detected with the bait. For some assays here: Where a sequence is shown, tags or fusion partners need not be part of it.
T1: K130R GFP-ATG5 (mouse) (UniProt Q99J83)
T1 sequence: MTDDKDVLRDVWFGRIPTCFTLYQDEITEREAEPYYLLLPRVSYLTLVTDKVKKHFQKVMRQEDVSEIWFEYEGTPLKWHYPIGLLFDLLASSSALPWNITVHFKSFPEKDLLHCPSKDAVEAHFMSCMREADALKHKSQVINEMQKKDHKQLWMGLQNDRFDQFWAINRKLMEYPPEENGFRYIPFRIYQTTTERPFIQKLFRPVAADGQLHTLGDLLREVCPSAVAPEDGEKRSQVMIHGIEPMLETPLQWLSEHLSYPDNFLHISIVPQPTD

By UniProt entry, the sequences of proteins in these tests, tags left out.
UniProt Q3UHJ0: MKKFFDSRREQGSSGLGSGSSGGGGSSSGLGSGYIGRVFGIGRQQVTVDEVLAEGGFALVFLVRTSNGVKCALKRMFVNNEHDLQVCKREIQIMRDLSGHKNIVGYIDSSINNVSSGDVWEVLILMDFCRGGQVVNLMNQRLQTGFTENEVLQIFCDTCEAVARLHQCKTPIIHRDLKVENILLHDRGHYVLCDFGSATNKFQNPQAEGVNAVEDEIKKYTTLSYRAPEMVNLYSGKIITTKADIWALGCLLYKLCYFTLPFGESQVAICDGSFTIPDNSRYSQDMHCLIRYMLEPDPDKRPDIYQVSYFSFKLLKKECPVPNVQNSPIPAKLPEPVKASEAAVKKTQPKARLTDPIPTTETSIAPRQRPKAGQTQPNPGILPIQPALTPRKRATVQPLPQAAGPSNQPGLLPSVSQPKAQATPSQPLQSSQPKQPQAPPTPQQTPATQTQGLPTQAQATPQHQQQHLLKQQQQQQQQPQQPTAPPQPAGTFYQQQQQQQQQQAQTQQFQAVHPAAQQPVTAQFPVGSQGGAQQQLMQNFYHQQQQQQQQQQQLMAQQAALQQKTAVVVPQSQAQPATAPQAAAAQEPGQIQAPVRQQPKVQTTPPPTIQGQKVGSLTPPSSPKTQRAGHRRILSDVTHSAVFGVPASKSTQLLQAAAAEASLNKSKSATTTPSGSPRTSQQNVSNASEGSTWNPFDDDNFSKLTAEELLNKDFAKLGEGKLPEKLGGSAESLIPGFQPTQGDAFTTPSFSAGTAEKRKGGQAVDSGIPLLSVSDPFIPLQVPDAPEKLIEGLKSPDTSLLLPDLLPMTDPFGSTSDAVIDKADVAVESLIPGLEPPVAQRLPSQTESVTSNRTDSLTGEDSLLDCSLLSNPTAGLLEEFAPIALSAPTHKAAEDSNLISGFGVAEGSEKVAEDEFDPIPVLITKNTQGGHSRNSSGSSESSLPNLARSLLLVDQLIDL
UniProt Q91VH2: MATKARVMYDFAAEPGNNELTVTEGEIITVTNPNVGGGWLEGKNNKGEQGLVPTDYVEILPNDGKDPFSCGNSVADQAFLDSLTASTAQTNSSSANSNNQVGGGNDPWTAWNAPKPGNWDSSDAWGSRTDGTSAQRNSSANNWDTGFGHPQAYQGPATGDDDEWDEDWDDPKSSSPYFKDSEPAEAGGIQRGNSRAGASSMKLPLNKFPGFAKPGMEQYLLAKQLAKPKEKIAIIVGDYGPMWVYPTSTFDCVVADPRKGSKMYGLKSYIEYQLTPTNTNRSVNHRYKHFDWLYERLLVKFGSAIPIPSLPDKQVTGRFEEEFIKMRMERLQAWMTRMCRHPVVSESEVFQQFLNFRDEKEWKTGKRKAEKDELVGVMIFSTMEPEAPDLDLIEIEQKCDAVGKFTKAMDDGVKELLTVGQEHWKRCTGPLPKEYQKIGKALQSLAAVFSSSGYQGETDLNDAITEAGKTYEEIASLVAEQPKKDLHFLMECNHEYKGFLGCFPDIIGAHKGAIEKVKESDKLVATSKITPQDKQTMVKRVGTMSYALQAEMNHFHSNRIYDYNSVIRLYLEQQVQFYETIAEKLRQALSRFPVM
UniProt Q8CHC4: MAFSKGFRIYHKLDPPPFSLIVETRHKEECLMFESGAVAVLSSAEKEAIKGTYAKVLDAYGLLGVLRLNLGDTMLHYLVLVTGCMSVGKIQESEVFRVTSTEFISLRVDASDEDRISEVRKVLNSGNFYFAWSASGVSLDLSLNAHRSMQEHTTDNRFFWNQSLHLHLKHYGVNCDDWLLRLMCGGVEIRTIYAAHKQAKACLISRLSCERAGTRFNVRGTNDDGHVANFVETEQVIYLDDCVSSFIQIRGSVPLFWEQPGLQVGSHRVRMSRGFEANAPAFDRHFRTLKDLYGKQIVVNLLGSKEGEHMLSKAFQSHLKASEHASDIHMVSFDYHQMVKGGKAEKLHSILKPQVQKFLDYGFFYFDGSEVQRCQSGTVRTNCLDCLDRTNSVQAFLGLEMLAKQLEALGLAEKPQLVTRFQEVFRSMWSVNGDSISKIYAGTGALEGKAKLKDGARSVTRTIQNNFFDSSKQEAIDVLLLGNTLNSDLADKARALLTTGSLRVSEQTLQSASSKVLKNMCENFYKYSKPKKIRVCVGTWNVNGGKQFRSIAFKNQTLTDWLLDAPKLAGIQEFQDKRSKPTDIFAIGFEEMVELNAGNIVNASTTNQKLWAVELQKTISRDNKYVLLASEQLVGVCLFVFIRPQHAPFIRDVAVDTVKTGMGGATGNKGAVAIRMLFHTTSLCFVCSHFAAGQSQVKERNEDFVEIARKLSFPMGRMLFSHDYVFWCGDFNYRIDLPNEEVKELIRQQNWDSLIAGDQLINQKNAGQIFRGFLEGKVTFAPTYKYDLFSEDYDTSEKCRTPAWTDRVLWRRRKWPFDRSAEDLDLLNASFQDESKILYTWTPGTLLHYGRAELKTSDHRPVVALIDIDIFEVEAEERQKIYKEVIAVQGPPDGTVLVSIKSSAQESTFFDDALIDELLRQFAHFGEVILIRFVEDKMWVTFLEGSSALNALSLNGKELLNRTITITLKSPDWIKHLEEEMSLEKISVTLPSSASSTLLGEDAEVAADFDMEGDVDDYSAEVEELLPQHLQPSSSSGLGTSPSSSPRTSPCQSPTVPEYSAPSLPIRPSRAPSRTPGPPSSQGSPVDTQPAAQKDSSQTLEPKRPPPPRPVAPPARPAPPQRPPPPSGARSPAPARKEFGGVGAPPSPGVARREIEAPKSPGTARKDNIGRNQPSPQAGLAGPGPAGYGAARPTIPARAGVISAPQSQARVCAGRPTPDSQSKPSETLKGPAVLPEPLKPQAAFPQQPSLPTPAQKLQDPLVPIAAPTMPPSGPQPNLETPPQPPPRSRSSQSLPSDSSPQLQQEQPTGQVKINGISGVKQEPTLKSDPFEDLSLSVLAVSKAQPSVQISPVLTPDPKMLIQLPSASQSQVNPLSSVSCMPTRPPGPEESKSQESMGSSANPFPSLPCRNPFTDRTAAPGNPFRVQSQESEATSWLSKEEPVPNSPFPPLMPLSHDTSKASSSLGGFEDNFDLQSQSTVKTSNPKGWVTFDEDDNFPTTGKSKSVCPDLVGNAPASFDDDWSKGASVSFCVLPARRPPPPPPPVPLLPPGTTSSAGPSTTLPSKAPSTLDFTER
UniProt Q6TXD4: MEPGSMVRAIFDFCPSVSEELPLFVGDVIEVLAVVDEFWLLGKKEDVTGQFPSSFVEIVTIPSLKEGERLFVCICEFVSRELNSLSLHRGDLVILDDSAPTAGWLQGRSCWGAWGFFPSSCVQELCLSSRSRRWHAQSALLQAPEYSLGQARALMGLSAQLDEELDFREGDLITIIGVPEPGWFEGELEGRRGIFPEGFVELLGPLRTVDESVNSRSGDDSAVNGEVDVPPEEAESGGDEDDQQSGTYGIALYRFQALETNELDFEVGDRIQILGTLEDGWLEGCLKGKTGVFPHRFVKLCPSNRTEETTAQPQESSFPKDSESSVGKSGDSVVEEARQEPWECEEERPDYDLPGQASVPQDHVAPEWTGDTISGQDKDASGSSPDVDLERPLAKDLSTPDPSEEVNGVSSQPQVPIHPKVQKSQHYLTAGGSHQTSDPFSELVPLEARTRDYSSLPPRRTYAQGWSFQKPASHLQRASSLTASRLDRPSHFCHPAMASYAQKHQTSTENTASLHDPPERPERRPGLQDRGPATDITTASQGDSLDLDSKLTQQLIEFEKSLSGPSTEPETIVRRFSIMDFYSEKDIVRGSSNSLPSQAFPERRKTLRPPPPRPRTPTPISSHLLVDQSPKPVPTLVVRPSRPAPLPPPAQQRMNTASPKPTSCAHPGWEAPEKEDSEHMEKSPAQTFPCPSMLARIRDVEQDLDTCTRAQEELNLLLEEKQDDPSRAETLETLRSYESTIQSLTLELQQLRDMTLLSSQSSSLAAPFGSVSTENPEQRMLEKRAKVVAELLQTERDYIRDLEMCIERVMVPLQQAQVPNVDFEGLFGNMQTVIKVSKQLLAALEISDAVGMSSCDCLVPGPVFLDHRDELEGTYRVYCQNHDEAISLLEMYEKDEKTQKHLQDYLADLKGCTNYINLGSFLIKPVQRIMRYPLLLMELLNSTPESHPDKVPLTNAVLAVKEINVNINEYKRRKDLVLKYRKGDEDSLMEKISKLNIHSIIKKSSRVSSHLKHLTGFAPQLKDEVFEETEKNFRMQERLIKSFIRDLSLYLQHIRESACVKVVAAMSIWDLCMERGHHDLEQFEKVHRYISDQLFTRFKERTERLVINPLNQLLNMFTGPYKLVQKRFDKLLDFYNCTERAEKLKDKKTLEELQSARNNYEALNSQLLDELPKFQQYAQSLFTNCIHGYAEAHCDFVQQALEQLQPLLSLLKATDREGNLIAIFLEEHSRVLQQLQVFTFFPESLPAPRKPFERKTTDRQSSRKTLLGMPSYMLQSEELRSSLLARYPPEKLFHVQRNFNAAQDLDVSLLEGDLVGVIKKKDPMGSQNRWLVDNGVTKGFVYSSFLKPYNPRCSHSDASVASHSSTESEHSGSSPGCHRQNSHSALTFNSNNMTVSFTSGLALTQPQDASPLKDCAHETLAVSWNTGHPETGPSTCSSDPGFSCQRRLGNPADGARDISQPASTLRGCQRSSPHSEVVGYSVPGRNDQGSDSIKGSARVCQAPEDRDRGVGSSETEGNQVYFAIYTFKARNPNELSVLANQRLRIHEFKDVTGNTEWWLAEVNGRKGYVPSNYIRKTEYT
UniProt P22892: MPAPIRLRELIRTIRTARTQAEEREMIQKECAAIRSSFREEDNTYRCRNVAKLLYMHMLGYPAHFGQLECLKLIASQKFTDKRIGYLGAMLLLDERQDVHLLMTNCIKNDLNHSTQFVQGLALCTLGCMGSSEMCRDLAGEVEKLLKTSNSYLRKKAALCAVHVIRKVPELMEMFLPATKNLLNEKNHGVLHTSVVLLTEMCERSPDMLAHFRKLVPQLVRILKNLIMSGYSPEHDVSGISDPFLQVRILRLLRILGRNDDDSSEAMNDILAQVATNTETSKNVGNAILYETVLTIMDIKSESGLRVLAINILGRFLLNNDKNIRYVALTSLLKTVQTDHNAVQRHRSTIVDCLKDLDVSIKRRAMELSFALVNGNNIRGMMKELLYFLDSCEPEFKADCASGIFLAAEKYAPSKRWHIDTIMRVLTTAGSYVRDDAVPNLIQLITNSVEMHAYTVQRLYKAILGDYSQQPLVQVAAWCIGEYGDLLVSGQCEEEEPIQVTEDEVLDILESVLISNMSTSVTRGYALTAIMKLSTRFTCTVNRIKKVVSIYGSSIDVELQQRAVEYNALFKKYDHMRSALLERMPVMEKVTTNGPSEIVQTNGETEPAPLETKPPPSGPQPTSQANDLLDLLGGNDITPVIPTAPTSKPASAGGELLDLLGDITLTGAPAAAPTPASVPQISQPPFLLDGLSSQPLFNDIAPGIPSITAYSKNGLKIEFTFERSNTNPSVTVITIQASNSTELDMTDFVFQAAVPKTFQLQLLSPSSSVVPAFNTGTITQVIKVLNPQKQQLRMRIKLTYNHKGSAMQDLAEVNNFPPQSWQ
UniProt Q9CPX6: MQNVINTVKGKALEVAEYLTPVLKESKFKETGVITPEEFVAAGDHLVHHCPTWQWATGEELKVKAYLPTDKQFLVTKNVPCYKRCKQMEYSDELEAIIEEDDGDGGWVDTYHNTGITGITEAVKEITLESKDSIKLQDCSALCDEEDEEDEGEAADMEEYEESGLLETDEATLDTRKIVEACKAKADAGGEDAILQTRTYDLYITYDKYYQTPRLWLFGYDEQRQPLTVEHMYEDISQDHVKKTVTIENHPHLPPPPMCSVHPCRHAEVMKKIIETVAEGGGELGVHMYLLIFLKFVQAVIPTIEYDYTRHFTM


Columns and labels:
[1] = target: T1, K130R GFP-ATG5 (mouse); assay: affinity purification with mass spectrometry
[2] = target: wild-type GFP-ATG5 (mouse) (UniProt Q99J83); assay: affinity purification with mass spectrometry

Molecule | binding [1] | binding [2]
AP2-asssociated kinase 1 (from UniProt Q3UHJ0 1-959) | no binding | binds
ATG2A (from UniProt Q6P4T0 1-1914) | binds | –
sorting nexin 9 (from UniProt Q91VH2 1-595) | no binding | –
SYNJ1 (from UniProt Q8CHC4 1-1574) | – | binds
insulin-like growth factor 2 receptor (from UniProt Q07113 36-2483) | – | binds
RBCC1 (from UniProt Q9ESK9 1-1588) | no binding | binds
dynamin binding protein (from UniProt Q6TXD4 1-1580) | no binding | binds
clathrin adaptor subunit AP1 G1 (from UniProt P22892 1-822) | – | binds
ATG3 (from UniProt Q9CPX6 1-314) | – | binds
ULK1 (protein, UniProt O70405 1-1051) MEPGRGGVETVGKFEFSRKDLIGHGAFAVVFKGRHREKHDLEVAVKCINKKNLAKSQTLLGKEIKILKELKHENIVALYDFQEMANSVYLVMEYCNGGDLADYLHTMRTLSEDTVRLFLQQIAGAMRLLHSKGIIHRDLKPQNILLSNPGGRRANPSNIRVKIADFGFARYLQSNMMAATLCGSPMYMAPEVIMSQHYDGKADLWSIGTIVYQCLTGKAPFQASSPQDLRLFYEKNKTLVPAIPRETSAPLRQLLLALLQRNHKDRMDFDEFFHHPFLDASTPIKKSPPVPVPSYPSSGSGSSSSSSSASHLASPPSLGEMPQLQKTLTSPADAAGFLQGSRDSGGSSKDSCDTDDFVMVPAQFPGDLVAEAASAKPPPDSLLCSGSSLVASAGLESHGRTPSPSPTCSSSPSPSGRPGPFSSNRYGASVPIPVPTQVHNYQRIEQNLQSPTQQQTARSSAIRRSGSTTPLGFGRASPSPPSHTDGAMLARKLSLGGGRPYTPSPQVGTIPERPSWSRVPSPQGADVRVGRSPRPGSSVPEHSPRTTGLGCRLHSAPNLSDFHVVRPKLPKPPTDPLGATFSPPQTSAPQPCPGLQSCRPLRGSPKLPDFLQRSPLPPILGSPTKAGPSFDFPKTPSSQNLLTLLARQGVVMTPPRNRTLPDLSEASPFHGQQLGSGLRPAEDTRGPFGRSFSTSRITDLLLKAAFGTQASDSGSTDSLQEKPMEIAPSAGFGGTLHPGARGGGASSPAPVVFTVGSPPSGATPPQSTRTRMFSVGSSSSLGSTGSSSARHLVPGACGEAPELSAPGHCCSLADPLAANLEGAVTFEAPDLPEETLMEQEHTETLHSLRFTLAFAQQVLEIAALKGSASEAAGGPEYQLQESVVADQISQLSREWGFAEQLVLYLKVAELLSSGLQTAIDQIRAGKLCLSSTVKQVVRRLNELYKASVVSCQGLSLRLQRFFLDKQRLLDGIHGVTAERLILSHAVQMVQSAALDEMFQHREGCVPRYHKALLLLEGLQHTLTDQADIENIAKCKLCIERRLSALLSGVYA | binds | –
PICALM (protein, UniProt Q7M6Y3 1-660) MSGQSLTDRITAAQHSVTGSAVSKTVCKATTHEIMGPKKKHLDYLIQCTNEMNVNIPQLADSLFERTTNSSWVVVFKSLITTHHLMVYGNERFIQYLASRNTLFNLSNFLDKSGLQGYDMSTFIRRYSRYLNEKAVSYRQVAFDFTKVKRGADGVMRTMNTEKLLKTVPIIQNQMDALLDFNVNSNELTNGVINAAFMLLFKDAIRLFAAYNEGIINLLEKYFDMKKNQCKEGLDIYKKFLTRMTRISEFLKVAEQVGIDRGDIPDLSQAPSSLLDALEQHLASLEGKKIKDSTAASRATTLSNAVSSLASTGLSLTKVDEREKQAALEEEQARLKALKEQRLKELAKKPHTSLTTAASPVSTSAGGIMTAPAIDIFSTPSSSNSTSKLPNDLLDLQQPTFHPSVHAMSAAPQGASTWGDPFSATLDAVEDAIPSLNPFLTKSSGDVHLPIASDVSTFTTRTPTHEMFVGFSPSPVAQPHSSAGLNVDFESVFGNKSTNVAVDSGGFDELGGLLKPTVASQNQSLPVAKLPPNKLVSDDLDSSLANLVGNLGIGNGTTKNDVSWSQPGEKKLTGGSNWQPKVAPTTAWSAATMNGMHFPQYAPPVMAYPATTPTGMIGYGIPPQMGSVPVMTQPTLIYSQPVMRPPNPFGPVSGAQIQFM | – | binds

Source: article doi:10.1101/769059
